Here are results for 1 substance from publication PMC5008269.

The chains behind the UniProt entries cited, without tags or fusion partners.
UniProt Q8N122: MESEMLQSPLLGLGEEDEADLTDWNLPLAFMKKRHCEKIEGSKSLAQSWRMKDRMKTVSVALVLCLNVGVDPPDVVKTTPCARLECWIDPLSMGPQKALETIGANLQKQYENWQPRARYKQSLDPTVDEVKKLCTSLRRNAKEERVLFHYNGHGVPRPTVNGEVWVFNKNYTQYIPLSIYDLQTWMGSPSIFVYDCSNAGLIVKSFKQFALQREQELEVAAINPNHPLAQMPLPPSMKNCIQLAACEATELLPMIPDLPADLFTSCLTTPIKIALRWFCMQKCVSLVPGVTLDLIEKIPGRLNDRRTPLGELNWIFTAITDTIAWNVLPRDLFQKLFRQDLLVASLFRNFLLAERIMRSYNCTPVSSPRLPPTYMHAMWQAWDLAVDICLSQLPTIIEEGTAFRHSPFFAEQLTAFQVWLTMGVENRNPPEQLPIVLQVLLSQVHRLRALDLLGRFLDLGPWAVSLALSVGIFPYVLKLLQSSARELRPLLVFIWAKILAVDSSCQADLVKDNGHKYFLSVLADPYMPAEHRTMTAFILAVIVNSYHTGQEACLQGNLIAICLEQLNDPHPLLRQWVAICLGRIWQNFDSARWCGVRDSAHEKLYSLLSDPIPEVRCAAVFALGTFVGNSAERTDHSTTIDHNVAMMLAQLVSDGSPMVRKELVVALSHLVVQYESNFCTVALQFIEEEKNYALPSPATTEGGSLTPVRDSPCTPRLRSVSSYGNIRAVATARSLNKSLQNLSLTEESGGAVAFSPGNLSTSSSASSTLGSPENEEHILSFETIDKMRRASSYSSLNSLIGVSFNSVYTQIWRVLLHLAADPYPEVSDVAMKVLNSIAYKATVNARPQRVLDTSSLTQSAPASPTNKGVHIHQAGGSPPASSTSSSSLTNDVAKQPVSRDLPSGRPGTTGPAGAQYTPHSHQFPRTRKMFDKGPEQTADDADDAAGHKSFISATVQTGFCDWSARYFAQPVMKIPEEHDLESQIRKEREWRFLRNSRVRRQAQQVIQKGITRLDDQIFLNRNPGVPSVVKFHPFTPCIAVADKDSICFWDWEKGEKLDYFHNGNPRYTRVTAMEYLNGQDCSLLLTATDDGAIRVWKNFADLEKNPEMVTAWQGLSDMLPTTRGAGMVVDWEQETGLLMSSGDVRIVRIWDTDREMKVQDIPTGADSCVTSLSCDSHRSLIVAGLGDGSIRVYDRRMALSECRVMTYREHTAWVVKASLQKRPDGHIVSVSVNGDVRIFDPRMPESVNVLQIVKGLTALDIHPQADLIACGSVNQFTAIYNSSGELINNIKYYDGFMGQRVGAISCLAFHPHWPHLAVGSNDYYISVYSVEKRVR

Results are given in words; binding and its absence hold for the method and conditions named. Binding seen in cells or lysates may run through a third protein. Some binding calls cover weakened binding; strength is not graded here.

Assay [1] deals with T1, IKKα (human (endogenous in PC3)) (UniProt O15111).
T1 sequence: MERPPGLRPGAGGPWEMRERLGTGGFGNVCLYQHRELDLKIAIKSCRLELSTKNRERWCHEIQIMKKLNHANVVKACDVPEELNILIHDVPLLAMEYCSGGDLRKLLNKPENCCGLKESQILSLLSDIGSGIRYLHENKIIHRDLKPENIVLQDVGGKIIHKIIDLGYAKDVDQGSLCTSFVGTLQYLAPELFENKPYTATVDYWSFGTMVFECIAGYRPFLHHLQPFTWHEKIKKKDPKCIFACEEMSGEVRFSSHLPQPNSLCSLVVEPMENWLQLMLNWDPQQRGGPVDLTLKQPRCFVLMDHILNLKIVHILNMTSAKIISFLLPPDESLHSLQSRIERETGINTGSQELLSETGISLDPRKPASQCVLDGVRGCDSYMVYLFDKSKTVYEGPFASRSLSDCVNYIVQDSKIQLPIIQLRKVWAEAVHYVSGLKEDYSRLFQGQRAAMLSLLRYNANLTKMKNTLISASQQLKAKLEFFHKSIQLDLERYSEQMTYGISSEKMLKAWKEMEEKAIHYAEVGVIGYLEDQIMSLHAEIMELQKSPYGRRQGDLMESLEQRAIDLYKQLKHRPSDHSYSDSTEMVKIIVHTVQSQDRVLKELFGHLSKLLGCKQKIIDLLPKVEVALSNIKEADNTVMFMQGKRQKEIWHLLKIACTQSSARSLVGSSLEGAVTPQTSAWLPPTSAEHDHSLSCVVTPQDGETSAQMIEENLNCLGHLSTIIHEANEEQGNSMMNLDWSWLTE
The assay is described as follows: co-IP; PC3 extract separated on a Superose 6 10/300 GL column; IKKα immunoprecipitated from fractions 13-15, immunoblot. (In general: Immunoblotting shows a protein as a band on a membrane.)

The target in assay [2] is T1, IKKα (human (endogenous in PC3)). The assay is described as follows: co-IP; endogenous proteins in PC3 lysate, lysis buffer with 0.3% CHAPS; antibody to IKKα, mTOR or Rictor, protein G agarose, immunoblot; mouse or rabbit IgG as negative control; also after LY294002 for one hour (IKKα-Rictor decreased dose-dependently) and after siRNA to IKKα (Rictor-mTOR association unchanged).

With “Raptor (from UniProt Q8N122 1-1335) (other; other documents disagree on this pair)”, the binding entry in assay [1] and in assay [2] was “binds” throughout.
